Data published in the supplement of paper PMC7666118.
This is one part of the list.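 How the source made its calls: active = dose-dependent thermal stabilisation significant by F-test of dose-response against flat model at 10% FDR; inactive = not significant.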

Chains of the proteins cited; added tags and fusions are not shown. Lines headed by an entry give the natural chain unless they say otherwise; changes in a name come on top.
UniProt Q9NQT8: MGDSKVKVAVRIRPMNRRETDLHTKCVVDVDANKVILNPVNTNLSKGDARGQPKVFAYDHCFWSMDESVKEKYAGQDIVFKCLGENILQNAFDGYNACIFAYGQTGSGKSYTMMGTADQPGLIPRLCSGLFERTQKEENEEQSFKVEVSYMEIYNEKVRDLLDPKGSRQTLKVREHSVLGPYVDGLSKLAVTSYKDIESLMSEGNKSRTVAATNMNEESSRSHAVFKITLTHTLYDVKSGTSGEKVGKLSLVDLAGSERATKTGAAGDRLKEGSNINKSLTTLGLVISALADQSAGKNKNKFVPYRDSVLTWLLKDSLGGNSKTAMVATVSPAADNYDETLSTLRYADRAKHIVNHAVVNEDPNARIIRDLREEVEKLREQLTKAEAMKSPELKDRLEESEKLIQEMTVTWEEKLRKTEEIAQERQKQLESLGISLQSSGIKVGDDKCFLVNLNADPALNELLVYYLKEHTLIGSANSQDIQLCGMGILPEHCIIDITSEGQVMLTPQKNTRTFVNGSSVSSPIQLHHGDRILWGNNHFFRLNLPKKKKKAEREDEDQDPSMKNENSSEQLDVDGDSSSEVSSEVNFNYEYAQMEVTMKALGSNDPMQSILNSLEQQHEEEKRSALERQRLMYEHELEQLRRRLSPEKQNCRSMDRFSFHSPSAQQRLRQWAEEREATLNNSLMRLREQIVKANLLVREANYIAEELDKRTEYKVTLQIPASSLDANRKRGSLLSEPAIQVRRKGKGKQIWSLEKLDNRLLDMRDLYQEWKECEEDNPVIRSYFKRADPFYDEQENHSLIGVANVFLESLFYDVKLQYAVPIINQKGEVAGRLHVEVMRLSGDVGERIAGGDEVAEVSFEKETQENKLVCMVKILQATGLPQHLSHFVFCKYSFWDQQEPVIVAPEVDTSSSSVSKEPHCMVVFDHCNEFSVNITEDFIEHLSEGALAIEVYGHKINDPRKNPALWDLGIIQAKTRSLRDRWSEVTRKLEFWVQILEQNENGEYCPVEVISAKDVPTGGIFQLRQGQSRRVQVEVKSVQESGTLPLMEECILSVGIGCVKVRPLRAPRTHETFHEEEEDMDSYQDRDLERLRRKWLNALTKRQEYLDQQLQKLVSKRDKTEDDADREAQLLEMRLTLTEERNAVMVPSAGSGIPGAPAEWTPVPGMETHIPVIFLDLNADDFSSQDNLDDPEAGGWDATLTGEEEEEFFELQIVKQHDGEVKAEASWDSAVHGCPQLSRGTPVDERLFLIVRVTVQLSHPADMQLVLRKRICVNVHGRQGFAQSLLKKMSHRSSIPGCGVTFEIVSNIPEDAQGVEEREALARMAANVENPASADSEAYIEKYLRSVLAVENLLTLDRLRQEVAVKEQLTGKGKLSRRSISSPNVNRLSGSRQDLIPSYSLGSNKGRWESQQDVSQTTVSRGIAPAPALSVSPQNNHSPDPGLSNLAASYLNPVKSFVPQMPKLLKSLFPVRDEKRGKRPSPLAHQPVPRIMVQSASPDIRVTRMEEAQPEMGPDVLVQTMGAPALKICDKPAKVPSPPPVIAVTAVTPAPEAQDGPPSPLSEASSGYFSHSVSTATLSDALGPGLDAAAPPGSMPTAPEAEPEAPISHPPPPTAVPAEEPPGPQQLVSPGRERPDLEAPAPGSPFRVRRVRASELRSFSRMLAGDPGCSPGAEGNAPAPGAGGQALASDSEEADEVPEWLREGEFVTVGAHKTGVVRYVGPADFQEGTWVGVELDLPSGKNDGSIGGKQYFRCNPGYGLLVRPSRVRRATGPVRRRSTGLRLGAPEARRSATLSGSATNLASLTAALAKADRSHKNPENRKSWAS
UniProt Q92598: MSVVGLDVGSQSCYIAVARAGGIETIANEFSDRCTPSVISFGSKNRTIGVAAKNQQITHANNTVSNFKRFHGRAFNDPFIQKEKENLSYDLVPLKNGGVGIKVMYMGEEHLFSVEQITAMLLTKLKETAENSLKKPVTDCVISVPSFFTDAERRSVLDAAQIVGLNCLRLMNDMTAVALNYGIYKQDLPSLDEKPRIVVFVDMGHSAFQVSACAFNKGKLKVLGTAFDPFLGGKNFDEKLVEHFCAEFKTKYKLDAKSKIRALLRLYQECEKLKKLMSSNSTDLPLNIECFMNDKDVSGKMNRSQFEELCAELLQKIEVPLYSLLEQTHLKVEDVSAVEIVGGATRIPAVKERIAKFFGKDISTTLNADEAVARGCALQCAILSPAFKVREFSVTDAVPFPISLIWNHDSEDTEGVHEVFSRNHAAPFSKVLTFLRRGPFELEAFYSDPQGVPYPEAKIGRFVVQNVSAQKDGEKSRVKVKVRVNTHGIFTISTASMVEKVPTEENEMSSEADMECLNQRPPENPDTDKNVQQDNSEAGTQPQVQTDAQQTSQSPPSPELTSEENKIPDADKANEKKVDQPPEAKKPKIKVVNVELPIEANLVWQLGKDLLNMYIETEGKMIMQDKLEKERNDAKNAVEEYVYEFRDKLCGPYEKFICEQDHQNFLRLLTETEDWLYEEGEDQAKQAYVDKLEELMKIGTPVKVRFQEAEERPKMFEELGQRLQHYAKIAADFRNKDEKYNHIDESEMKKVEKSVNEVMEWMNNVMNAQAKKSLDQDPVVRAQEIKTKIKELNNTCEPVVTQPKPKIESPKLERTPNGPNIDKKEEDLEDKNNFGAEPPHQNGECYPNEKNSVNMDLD
UniProt Q58FG1, whole entry: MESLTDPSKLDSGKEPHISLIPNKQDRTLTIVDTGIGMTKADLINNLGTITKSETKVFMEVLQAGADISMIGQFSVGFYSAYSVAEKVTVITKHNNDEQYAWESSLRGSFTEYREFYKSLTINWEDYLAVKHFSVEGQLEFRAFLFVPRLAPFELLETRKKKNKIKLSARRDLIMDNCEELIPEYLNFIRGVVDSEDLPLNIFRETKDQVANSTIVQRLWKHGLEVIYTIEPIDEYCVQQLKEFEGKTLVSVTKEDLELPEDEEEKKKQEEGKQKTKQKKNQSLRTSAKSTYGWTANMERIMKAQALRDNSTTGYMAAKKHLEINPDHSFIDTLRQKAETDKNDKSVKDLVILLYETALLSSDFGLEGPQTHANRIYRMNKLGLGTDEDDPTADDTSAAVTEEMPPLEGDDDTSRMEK
UniProt Q14739: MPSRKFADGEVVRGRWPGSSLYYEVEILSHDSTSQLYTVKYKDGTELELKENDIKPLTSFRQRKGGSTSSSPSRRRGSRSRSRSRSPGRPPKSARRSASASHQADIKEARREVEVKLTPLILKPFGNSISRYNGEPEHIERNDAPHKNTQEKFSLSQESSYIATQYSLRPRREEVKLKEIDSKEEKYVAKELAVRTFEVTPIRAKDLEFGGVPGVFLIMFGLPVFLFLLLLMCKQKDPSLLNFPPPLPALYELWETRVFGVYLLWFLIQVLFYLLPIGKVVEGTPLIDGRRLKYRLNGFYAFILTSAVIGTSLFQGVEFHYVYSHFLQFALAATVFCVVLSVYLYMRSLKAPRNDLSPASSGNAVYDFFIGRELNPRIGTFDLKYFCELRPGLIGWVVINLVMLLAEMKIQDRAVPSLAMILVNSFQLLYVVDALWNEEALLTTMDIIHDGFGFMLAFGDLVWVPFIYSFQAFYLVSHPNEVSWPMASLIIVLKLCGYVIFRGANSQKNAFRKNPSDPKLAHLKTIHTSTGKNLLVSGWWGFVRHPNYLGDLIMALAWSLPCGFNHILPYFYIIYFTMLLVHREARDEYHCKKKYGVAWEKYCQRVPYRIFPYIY
UniProt Q3ZCW2: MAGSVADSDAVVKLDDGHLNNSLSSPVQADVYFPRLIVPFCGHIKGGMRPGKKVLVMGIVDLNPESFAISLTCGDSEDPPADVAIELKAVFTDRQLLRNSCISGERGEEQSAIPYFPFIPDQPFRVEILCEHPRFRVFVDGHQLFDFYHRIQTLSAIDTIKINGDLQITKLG
UniProt Q99714: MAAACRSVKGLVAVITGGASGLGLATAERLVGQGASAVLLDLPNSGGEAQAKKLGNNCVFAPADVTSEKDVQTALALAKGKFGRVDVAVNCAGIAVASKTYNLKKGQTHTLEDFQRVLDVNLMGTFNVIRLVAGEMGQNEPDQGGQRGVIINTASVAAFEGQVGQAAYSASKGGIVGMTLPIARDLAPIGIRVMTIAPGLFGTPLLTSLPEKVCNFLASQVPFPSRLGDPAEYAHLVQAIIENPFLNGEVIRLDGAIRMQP
UniProt Q9UHB6: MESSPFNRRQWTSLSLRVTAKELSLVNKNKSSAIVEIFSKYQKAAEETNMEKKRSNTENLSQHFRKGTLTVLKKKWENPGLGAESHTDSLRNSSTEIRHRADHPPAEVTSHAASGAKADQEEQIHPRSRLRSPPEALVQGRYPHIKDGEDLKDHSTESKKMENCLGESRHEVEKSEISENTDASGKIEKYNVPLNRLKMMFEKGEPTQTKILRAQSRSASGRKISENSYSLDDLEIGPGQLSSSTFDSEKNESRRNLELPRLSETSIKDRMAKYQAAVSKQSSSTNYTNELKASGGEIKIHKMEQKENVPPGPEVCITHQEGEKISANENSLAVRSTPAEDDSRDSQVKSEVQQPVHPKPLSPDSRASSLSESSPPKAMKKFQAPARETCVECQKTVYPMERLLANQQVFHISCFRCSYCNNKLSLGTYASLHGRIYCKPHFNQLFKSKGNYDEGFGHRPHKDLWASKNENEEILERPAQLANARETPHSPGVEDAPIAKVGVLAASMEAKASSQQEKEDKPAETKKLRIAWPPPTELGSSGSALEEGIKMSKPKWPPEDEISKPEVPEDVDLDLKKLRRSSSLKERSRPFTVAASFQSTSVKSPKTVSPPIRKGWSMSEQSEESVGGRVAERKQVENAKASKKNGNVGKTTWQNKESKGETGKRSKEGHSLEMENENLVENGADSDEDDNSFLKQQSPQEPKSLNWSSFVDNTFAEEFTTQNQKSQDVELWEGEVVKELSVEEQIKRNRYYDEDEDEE
UniProt Q8IY47: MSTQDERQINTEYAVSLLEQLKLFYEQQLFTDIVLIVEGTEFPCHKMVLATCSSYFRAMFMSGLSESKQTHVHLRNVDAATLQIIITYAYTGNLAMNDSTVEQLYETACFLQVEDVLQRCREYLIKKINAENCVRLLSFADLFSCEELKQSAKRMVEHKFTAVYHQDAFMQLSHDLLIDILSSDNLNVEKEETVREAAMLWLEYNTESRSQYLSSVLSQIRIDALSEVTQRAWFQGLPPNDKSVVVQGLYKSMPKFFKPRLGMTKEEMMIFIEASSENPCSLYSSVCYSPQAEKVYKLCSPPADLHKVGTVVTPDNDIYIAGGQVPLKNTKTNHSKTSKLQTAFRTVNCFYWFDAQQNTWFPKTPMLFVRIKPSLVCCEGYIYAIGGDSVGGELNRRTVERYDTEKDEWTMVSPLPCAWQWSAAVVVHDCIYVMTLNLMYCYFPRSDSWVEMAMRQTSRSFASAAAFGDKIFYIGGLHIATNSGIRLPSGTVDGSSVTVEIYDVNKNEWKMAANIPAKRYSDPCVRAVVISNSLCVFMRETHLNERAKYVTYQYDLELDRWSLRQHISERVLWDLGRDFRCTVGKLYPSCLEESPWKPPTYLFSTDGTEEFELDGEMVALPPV
UniProt P09382, whole entry: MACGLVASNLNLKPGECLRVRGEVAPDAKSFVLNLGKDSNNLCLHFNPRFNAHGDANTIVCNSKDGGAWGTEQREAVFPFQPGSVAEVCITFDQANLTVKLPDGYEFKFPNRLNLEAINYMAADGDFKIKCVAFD
UniProt Q9NQS7, whole entry: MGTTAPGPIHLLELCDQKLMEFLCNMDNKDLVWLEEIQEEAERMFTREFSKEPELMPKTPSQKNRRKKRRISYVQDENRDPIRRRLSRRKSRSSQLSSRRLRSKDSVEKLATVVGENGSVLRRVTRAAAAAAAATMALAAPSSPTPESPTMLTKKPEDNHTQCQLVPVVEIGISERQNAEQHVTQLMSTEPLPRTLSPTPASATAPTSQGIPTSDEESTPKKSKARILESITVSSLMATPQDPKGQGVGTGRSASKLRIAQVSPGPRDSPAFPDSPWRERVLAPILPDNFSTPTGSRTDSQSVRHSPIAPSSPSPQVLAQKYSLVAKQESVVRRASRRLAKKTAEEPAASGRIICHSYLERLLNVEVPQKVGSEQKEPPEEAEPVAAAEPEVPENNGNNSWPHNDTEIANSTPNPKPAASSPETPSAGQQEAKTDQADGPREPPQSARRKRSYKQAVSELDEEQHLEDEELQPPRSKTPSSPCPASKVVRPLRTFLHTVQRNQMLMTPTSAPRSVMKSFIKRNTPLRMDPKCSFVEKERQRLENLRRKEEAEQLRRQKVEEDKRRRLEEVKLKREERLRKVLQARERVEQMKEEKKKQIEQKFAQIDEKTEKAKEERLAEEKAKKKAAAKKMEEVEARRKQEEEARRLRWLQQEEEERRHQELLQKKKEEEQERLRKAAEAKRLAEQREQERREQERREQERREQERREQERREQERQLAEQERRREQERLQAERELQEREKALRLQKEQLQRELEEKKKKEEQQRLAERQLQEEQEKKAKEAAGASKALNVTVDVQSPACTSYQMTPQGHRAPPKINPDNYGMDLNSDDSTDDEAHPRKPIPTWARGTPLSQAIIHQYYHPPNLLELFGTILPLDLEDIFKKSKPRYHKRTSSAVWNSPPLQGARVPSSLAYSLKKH

Compound: Nc1nc2c(ncn2[C@@H]2O[C@H](COP(=O)(O)OP(=O)(O)OP(=O)(O)O)[C@@H](O)[C@H]2O)c(=O)[nH]1
Test: dose-dependent thermal stabilisation call (2D-TPP, DLPTP, 10% FDR) (binary (1 = stabilised)); higher = stabilised by the compound
Settings: system: Jurkat gel-filtered lysate; concentration range 1-500 µM
Description: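 2D thermal proteome profiling in gel-filtered Jurkat E6.1 lysate (2 mg/ml) treated with NaGTP (0, 1, 10, 100, 500 uM) for 10 min at room temperature, then heated 3 min at one of 12 temperatures (42-63.9 C). Soluble protein was quantified by TMT10 MS. The value is the DLPTP call of the paper: dose-dependent thermal stabilisation over all temperatures at 10% FDR (F-test of a dose-response against a flat model); one experiment, one call per tested protein.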

Target	dose-dependent thermal stabilisation call
KATNB1 (UniProt Q9BVA0)	inactive: 0
HSPA5 (UniProt P11021)	active: 1
KDM2B (UniProt Q8NHM5)	inactive: 0
IAH1 (UniProt Q2TAA2)	inactive: 0
KIF13B (UniProt Q9NQT8)	inactive: 0
LGALS3BP (UniProt Q08380)	inactive: 0
HSPH1 (UniProt Q92598)	inactive: 0
KDM6A (UniProt O15550)	inactive: 0
HTRA2 (UniProt O43464)	inactive: 0
KIF1BP (UniProt Q96EK5)	inactive: 0
HSP90AA4P (UniProt Q58FG1)	inactive: 0
KLC1 (UniProt Q07866)	active: 1
HSP90B1 (UniProt P14625)	inactive: 0
LBR (UniProt Q14739)	inactive: 0
LGALSL (UniProt Q3ZCW2)	inactive: 0
KDM4A (UniProt O75164)	inactive: 0
LIG4 (UniProt P49917)	inactive: 0
ITFG2 (UniProt Q969R8)	inactive: 0
JADE3 (UniProt Q92613)	inactive: 0
KYAT1 (UniProt Q16773)	inactive: 0

Target	dose-dependent thermal stabilisation call
HSD17B10 (UniProt Q99714)	active: 1
KIAA0922 (UniProt A2VDJ0)	inactive: 0
INTS3 (UniProt Q68E01)	inactive: 0
KIF23 (UniProt Q02241)	inactive: 0
KIAA0907 (UniProt Q7Z7F0)	inactive: 0
LIMA1 (UniProt Q9UHB6)	inactive: 0
KARS (UniProt Q15046)	inactive: 0
IKZF2 (UniProt Q9UKS7)	inactive: 0
IRF2BP1 (UniProt Q8IU81)	inactive: 0
KBTBD2 (UniProt Q8IY47)	inactive: 0
HSPA9 (UniProt P38646)	active: 1
INTS9 (UniProt Q9NV88)	inactive: 0
ITPA (UniProt Q9BY32)	inactive: 0
HSPA6 (UniProt P17066)	inactive: 0
LGALS1 (UniProt P09382)	inactive: 0
IPO11 (UniProt Q9UI26)	inactive: 0
HNRNPUL1 (UniProt Q9BUJ2)	inactive: 0
KIAA1211 (UniProt Q6ZU35)	inactive: 0
INCENP (UniProt Q9NQS7)	inactive: 0
KBTBD6 (UniProt Q86V97)	inactive: 0

An excerpt of these results, with bars between the fields.
Target | dose-dependent thermal stabilisation call
KARS (UniProt Q15046) | inactive: 0
IKZF2 (UniProt Q9UKS7) | inactive: 0
